Measurements as given in PubChem BioAssay AID588590 (National Center for Advancing Translational Sciences (NCATS), 2011).
“And” between values parts separate entries of the source, which are not always exact repeats. Identical values can stand only once. Out of some 390,000 compounds screened, about 4,000 (1%) were called active. Inconclusive results, whose numbers are uncertain, are shown with a selection of clear calls. The call rests on the fitted dose curve; in most records, active means well fitted inhibition curve with a large enough effect; inconclusive means small, poorly fitted or top-dose-only effect, or another doubt; inactive means no such curve, though single readings can be large or run the other way. Potencies beside an inconclusive call are fits to weak or partial responses and may not hold up.

The chains behind the UniProt entries cited, without tags or fusion partners. Where a name states a change or a piece, a line headed by the entry shows the natural chain unless it says otherwise.
UniProt Q9UNA4: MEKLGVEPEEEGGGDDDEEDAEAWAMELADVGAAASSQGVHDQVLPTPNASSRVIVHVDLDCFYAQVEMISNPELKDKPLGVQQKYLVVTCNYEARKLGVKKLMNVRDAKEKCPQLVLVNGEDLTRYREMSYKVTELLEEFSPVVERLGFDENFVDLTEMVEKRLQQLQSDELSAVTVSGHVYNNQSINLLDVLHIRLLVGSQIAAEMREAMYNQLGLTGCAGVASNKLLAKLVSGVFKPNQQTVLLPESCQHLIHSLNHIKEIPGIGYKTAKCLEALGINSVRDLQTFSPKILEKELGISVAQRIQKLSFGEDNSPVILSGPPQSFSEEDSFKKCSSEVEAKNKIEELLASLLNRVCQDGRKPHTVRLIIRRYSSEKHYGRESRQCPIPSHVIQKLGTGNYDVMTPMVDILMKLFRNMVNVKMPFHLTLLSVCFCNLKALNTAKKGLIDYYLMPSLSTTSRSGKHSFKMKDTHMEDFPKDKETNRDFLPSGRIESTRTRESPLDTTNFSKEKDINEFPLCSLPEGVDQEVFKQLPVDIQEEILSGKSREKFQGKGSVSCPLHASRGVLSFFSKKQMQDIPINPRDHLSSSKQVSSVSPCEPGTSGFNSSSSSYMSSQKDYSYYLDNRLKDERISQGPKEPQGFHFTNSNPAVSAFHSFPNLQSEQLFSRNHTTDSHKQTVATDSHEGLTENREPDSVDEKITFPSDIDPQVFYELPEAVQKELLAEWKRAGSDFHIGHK

Each compound was assayed against DNA polymerase iota (Homo sapiens) (UniProt Q9UNA4) (assay: qHTS for Inhibitors of Polymerase Iota). Conditions: Pol iota fluorescent replication assay, 10 min; series mostly up to 115 µM.
In short: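 Pol iota at 10 nM preincubated 15 min with compounds at room temperature; reaction started with fluorescent substrate, 50 nM final. Fluorescence read kinetically at 0 and 10 min; buffer-only wells as negative control.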
Potency means the concentration at half of the fitted maximal effect.

Potency, inconclusive:
CCN1C(=O)c2cccc3c(S(=O)(=O)N4CCNCC4)ccc1c23 35.5 µM [inhibitor, full curve, poor fit]
Cc1ccc2nc(N/N=C\c3ccc([N+](=O)[O-])o3)nc(-c3ccccc3)c2c1 14.1 µM [inhibitor, full curve, poor fit]
O=C1CCCC/C1=C/Nc1ccc(C(=O)O)cc1 22.4 µM [inhibitor, full curve, poor fit]
CN(C)CCC(=O)N1c2ccccc2Sc2ccc(Cl)cc21 39.8 µM [inhibitor, single point]
CC1=CC(C)(C)N(C(=O)c2ccccc2)c2ccc(C)cc21 7.94 µM [inhibitor, full curve, poor fit]
CCN(CC)c1ccc(/C=N/N2CCN(Cc3cccc4ccccc34)CC2)c(O)c1 79.4 µM [inhibitor, partial curve, poor fit]
CNc1nnc(-c2ccc(C)cc2)c2ccccc12 100 µM [inhibitor, partial curve, poor fit]
CCCCN1C(C(=O)c2ccccc2)=C(OC(=O)CC)c2ccccc2S1(=O)=O 79.4 µM [inhibitor, single point]
Oc1ccc2nnc3c(Br)cnn3c2c1 12.6 µM [inhibitor, partial curve, poor fit]
C=CCOc1ccc(/C=C2\SC(=S)N(NS(=O)(=O)c3ccc(C)cc3)C2=O)cc1 25.1 µM [inhibitor, full curve]
Cc1ccccc1CN1C(=O)C(O)(c2c[nH]c3ccccc23)c2cc(Cl)ccc21 (stereo not drawn) 11.2 µM [inhibitor, partial curve]
CCCc1nc2sc3ccccc3c(=O)c2c(=O)n1Cc1ccc(OC)cc1 89.1 µM [inhibitor, partial curve, poor fit]
COc1ccc(-c2nnn(CC(=O)N(Cc3ccco3)C(C(=O)NCC3CCCO3)c3ccco3)n2)cc1 (stereo not drawn) 14.1 µM [inhibitor, full curve, poor fit]
O=C(Nc1nc(-c2ccncc2)cs1)C1COc2ccccc2O1 (stereo not drawn) 25.1 µM [inhibitor, partial curve]
CCC(=O)Nc1ccc2nc3c(=O)[nH]c(=S)[nH]c3nc2c1 14.1 µM [inhibitor, full curve, poor fit]
COc1cc(OC)c(OC)cc1/C=C1\Oc2cc(OCC(=O)N3Cc4ccccc4C[C@H]3C(=O)O)ccc2C1=O 31.6 µM [inhibitor, partial curve, poor fit]
Cc1cccc(C)c1Nc1nnc(SCc2cn3cccc(C)c3n2)s1 79.4 µM [inhibitor, single point]
CCOc1ccccc1NC(=O)c1c(NC(=O)c2ccncc2)sc2c1CCC(C(C)(C)C)C2 (stereo not drawn) 89.1 µM [inhibitor, single point]
COc1ccc(C(=O)NCC(=O)OCC(=O)NC2CCCC2)cc1 100 µM [inhibitor, single point]
COc1cc(NC(=O)c2ccccc2[N+](=O)[O-])ccc1NC(=O)c1cc2ccccc2o1 39.8 µM [inhibitor, partial curve, poor fit]
O=C(COC(=O)c1ccc(F)cc1)Nc1ccccc1N1CCOCC1 3.55 µM [inhibitor, full curve, poor fit]
COc1ccccc1CNC(=O)/C=C/c1ccc(Br)o1 44.7 µM [inhibitor, partial curve, poor fit]
Cc1c([N+](=O)[O-])cc(S(=O)(=O)Nc2ccc(-c3ccc(N4CCCC4)nn3)cc2)cc1[N+](=O)[O-] 28.2 µM [inhibitor, single point]
Cc1ccc(/C=N/c2sc3c(c2C#N)CCC3)o1 15.8 µM [inhibitor, full curve, poor fit]
O=c1c2ccccc2nc2n1CCc1c-2[nH]c2ccccc12 0.0224 µM [inhibitor, full curve, poor fit]
Cc1ccc(OCc2occc2C(=O)O)cc1 11.2 µM [inhibitor, partial curve, poor fit]
O=C1NC[C@H](Cc2ccccc2)N(CC2CCN(CCC3CCCC3)CC2)C1=O 100 µM [inhibitor, single point]
CCOC(=O)c1ccc(/C=C2/C=C(c3ccccc3)N(c3ccc(Cl)c(C(=O)O)c3)C2=O)cc1 14.1 µM [inhibitor, full curve, poor fit]
Cc1ccc(-c2nc(C(=O)NC3CCCCCC3)no2)cc1 100 µM [inhibitor, partial curve, poor fit]
Cc1cc(Nc2ccc(Cl)cc2)nc(N2CCOCC2)n1 89.1 µM [inhibitor, partial curve, poor fit]
Cc1ccc(S(=O)(=O)N2[C@@H](c3ccc(Br)cc3)C(C(=O)O)=C[C@H]2C(C)(C)C)cc1 28.2 µM [inhibitor, single point]
Cc1ccnc(SCC(=O)Nc2cc(C)on2)n1 89.1 µM [inhibitor, partial curve, poor fit]
O=C(O)c1c2c(nc3ccc(S(=O)(=O)N4CCC(C(=O)NCc5ccc(Cl)cc5)CC4)cc13)CCCC2 79.4 µM [inhibitor, single point] and 28.2 µM [inhibitor, full curve, poor fit]
COc1ccc(Cl)cc1NC(=O)c1nnn(CC(=O)Nc2ccc(OC)c(OC)c2)c1N 79.4 µM [inhibitor, single point]
O=C(CCCOc1ccc(Cl)cc1Cl)N/N=C/c1cccc([N+](=O)[O-])c1 3.16 µM [inhibitor, full curve, poor fit]
CCOc1ccc(S(=O)(=O)Nc2ccc(OC)c(Cl)c2)c2cccnc12 89.1 µM [inhibitor, single point]
O=S1(=O)[C@H]2C[C@H](CO)O[C@@]2(CO)CN1Cc1ccc(-c2ccc(F)cc2)cc1 89.1 µM [inhibitor, single point]
CCCC/C=C/[C@H](c1ccccc1)[C@H](CO)Cc1ccc2ccccc2c1 89.1 µM [inhibitor, partial curve, poor fit]
Cn1nnnc1SCc1nc2scc(-c3ccc(Cl)cc3)c2c(=O)[nH]1 79.4 µM [inhibitor, partial curve]
COc1cc2cc(C)c(SCC(=O)N3CCN(C(=O)c4ccco4)CC3)nc2cc1OC 56.2 µM [inhibitor, partial curve, poor fit]
Cc1c(NC(=O)C2CC(c3ccc(F)cc3)=NO2)c(=O)n(-c2ccccc2)n1C (stereo not drawn) 39.8 µM [inhibitor, single point]
COc1ccc2sc(-c3ccccc3OC)c(-c3ccc(OC)c(F)c3)c2c1 50.1 µM [inhibitor, partial curve, poor fit]
O=C(N[C@@H]1CCC(=O)N(CC[C@H](Sc2ccccc2)c2ccccc2)CC1)OCc1ccccc1 89.1 µM [inhibitor, single point]
CCCn1[nH]cc(SC)c(=O)c1=O 15.8 µM [inhibitor, full curve, poor fit]
Cc1c(C(=O)O)sc2nc(/C=C/c3ccccc3OC(F)F)[nH]c(=O)c12 31.6 µM [inhibitor, single point]

Potency, inactive:
CC(C)(C)NC(=O)Cn1cc(S(=O)(=O)Cc2ccccc2Cl)c2ccccc21
CC(CSc1n[nH]c(=S)s1)c1ccccc1 (stereo not drawn)
O=C(CCCN1C(=O)/C(=C\c2ccco2)SC1=S)Nc1ccc2ccccc2c1
O=C(NC1(C(F)(F)F)N=C(c2ccccc2)N(Cc2ccccc2)C1=O)c1ccc(F)cc1 (stereo not drawn)
O=C(CSc1nc2cc(Cl)ccc2o1)Nc1ccc(N2CCOCC2)cc1
CC(C)Oc1ccc(C(=O)Nc2nc3c(s2)CC(C(C)(C)C)CC3)cc1 (stereo not drawn)
COc1cc(OC)c(NC(=O)c2cn(C)c(=O)c3cc(OC)c(OC)cc23)cc1Cl
O=C(/C=C/c1ccccc1)N1CCN(Cc2cc(=O)n3nc(-c4ccccc4Cl)sc3n2)CC1
O=C(NCC(c1cccnc1)N1CCc2ccccc21)C(=O)Nc1ccccc1F (stereo not drawn)
Cc1ccccc1Nc1nnc(-c2ccc(C)c(S(=O)(=O)N3CCCCC3)c2)c2ccccc12
O=C(Nc1nc2ccccc2[nH]1)c1ccccc1F
Cc1nc2ccc(N)cc2s1
CCOc1ccc(C2C(C(N)=O)=C(C)Nc3nc(-c4cccc(Cl)c4)nn32)cc1OC (stereo not drawn)
CCOC(=O)COc1ccc(/C=C2/SC(=Nc3ccccc3)N(Cc3cccnc3)C2=O)cc1OC

Potency, active:
COc1ccc2c(c1)c(=O)oc1cc(OCC(=O)NC3CCCCC3)ccc12 25.1 µM
CC(=O)c1ccc(NC(=O)Cn2c(=O)nc(-c3ccccc3)c3ccccc32)cc1 70.8 µM
Cc1ccc(/C=C2\S/C(=N/S(=O)(=O)c3cccs3)NC2=O)cc1 39.8 µM
CCOC(=O)Cc1cc(=O)n2[nH]c(-c3ccc(C)cc3)cc2n1 79.4 µM
